Values from PubChem BioAssay AID493246 (Drosophila RNAi Screening Center, 2011).

Purpose: 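Genes fly cells need to grow and stay alive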 (primary screen)
System: Drosophila Kc and S2R+ cells
Reagents: long dsRNA against Drosophila genes
Measured: 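Cell number per well after knock-down, printed as raw plate values; calls were based on per-plate z-scores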
Reading the numbers: Kc cell number and S2R+ cell number: higher = more cells remaining
Active means: 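Active when the per-plate z-score of cell number is 3 or more in the direction of fewer cells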
In all, the deposit lists about 21,000 reagents; below is an unselected part of those with a known target gene and a result. Over the whole deposit, 429 (2%) got an active call. 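Values are raw and not normalised between plates; calls rest on per-plate z-scores that were not deposited.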 Not stated in the record: the amount of reagent, the time to read-out.

target	DRSC id	Kc cell number, rep 1	Kc cell number, rep 2	S2R+ cell number, rep 1	S2R+ cell number, rep 2	outcome
mod(mdg4)	DRSC13474	1.43e6	1.45e6	1.07e6	1.19e6	inactive
mod(mdg4)	DRSC13475	1.45e6	1.42e6	1.08e6	1.16e6	inactive
mod(mdg4)	DRSC13478	1.40e6	1.42e6	9.97e5	1.10e6	inactive
mod(mdg4)	DRSC13479	1.49e6	1.46e6	1.13e6	1.12e6	inactive
mod(mdg4)	DRSC15042	1.49e6	1.45e6	1.11e6	1.20e6	inactive
mod(mdg4)	DRSC17000	1.83e6	1.82e6	1.36e6	1.49e6	inactive
CG14195	DRSC19550	1.50e6	1.51e6	9.87e5	1.08e6	inactive
Pde1c	DRSC02421	1.66e6	1.63e6	1.29e6	1.45e6	inactive
Pde1c	DRSC02422	1.55e6	1.62e6	1.25e6	1.47e6	inactive
Pde1c	DRSC02423	1.55e6	1.62e6	1.24e6	1.49e6	inactive
Pde1c	DRSC02424	1.69e6	1.70e6	1.31e6	1.62e6	inactive
Pde1c	DRSC02425	1.60e6	1.71e6	1.15e6	1.33e6	inactive
Pde1c	DRSC02426	1.53e6	1.68e6	1.23e6	1.35e6	inactive
mbl	DRSC05657	1.45e6	1.37e6	9.92e5	1.11e6	inactive
mbl	DRSC06449	1.25e6	1.26e6	6.26e5	6.71e5	inactive
mbl	DRSC07651	1.44e6	1.56e6	7.44e5	8.60e5	inactive
Elo68beta	DRSC09860	1.47e6	1.53e6	1.38e6	1.53e6	inactive
LysB	DRSC08673	1.44e6	1.34e6	9.65e5	1.23e6	inactive
CG34112	DRSC12235	1.46e6	1.37e6	1.37e6	1.48e6	inactive
Srp54k	DRSC11289	1.58e6	1.68e6	1.23e6	1.32e6	inactive
Kdm2	DRSC14286	1.71e6	1.86e6	1.41e6	1.49e6	inactive
NitFhit	DRSC08680	1.30e6	1.34e6	9.86e5	1.25e6	inactive
unc-104	DRSC07710	1.64e6	1.70e6	1.28e6	1.39e6	inactive
Oatp58Db	DRSC04364	1.66e6	1.82e6	1.35e6	3.77e5	inactive

Just “Kc cell number, rep 2”, for 4 of the entries above:
mod(mdg4) [DRSC13479]	1.46e6
mod(mdg4) [DRSC15042]	1.45e6
mod(mdg4) [DRSC17000]	1.82e6
CG14195 [DRSC19550]	1.51e6
